In paper doi:10.1101/661488:
No constants are given. Whether binding was seen depends on the method and setting. Binding seen in cells or lysates may run through a third protein. Here binding means that the protein was enriched with, or labelled near, the bait; the list need not be complete.

Target: AMPKα (α catalytic subunit of AMPK) (mouse (endogenous in DRG))
Assay: affinity purification with mass spectrometry

Binder	binding
GPHN (postsynaptic protein) (protein, UniProt Q8BUV3 1-769) MATEGMILTNHDHQIRVGVLTVSDSCFRNLAEDRSGINLKDLVQDPSLLGGTISAYKIVPDEIEEIKETLIDWCDEKELNLILTTGGTGFAPRDVTPEATKEVIEREAPGMALAMLMGSLNVTPLGMLSRPVCGIRGKTLIINLPGSKKGSQECFQFILPALPHAIDLLRDAIVKVKEVHDELEDLPSPPPPLSPPPTTSPHKQTEDKGVQCEEEEEEKKDSGVASTEDSSSSHITAAALAAKIPDSIISRGVQVLPRDTASLSTTPSESPRAQATSRLSTASCPTPKQIRRPDESKGVASRVGSLKARLPSCSSTYSVSEVQSRCSSKENILRASHSAVDITKVARRHRMSPFPLTSMDKAFITVLEMTPVLGTEIINYRDGMGRVLAQDVYAKDNLPPFPASVKDGYAVRAADGPGDRFIIGESQAGEQPTQTVMPGQVMRVTTGAPIPCGADAVVQVEDTELIRESDDGTEELEVRILVQARPGQDIRPIGHDIKRGECVLAKGTHMGPSEIGLLATVGVTEVEVNKFPVVAVMSTGNELLNPEDDLLPGKIRDSNRSTLLATIQEHGYPTINLGIVGDNPDDLLNALNEGISRADVIITSGGVSMGEKDYLKQVLDIDLHAQIHFGRVFMKPGLPTTFATLDIDGVRKIIFALPGNPVSAVVTCNLFVVPALRKMQGILDPRPTIIKARLSCDVKLDPRPEYHRCILTWHHQEPLPWAQSTGNQMSSRLMSMRSANGLLMLPPKTEQYVELHKGEVVDVMVIGRL	binds
PSMD7 (proteasomal protein) (protein, UniProt P26516 1-321) MPELAVQKVVVHPLVLLSVVDHFNRIGKVGNQKRVVGVLLGSWQKKVLDVSNSFAVPFDEDDKDDSVWFLDHDYLENMYGMFKKVNARERIVGWYHTGPKLHKNDIAINELMKRYCPNSVLVIIDVKPKDLGLPTEAYISVEEVHDDGTPTSKTFEHVTSEIGAEEAEEVGVEHLLRDIKDTTVGTLSQRITNQVHGLKGLNSKLLDIRSYLEKVASGKLPINHQIIYQLQDVFNLLPDASLQEFVKAFYLKTNDQMVVVYLASLIRSVVALHNLINNKIANRDAEKKEGQEKEESKKERKDDKEKEKSDAAKKEEKKEKK	binds
PSMD13 (proteasomal protein) (protein, UniProt Q9WVJ2 1-376) MKDVPAFLQQSQSSGPGQAAVWHRLEELYTKKLWHQLTLEVLDFVQDPCFAQGDGLIKLYENFISEFEHRVNPLSLVEIILHVVRQMTDPNVALTFLEKTREKVKSSDEAVILCKTAIGALKLNIGDLQATKETIEDVEEMLNNLPGVTSVHSRFYDLSSKYYQTIGNHASYYKDALRFLGCVDIKDLPVSEQQERAFTLGLAGLLGEGVFNFGELLMHPVLESLRDTDRQWLIDTLYAFNSGAVDRFQTLKCAWGQQPDLAANEAQLLRKIQLLCLMEMTFTRPANHRQLTFEEIAKSAKITVNKVELLVMKALSVGLVRGSIDEVDKRVHMTWVQPRVLDLQQIKGMKDRLELWCTDVKSMEMLVEHQAQDILT	binds
